Consider 15 molecules from doi:10.1101/162271.

The chains behind the UniProt entries cited, without tags or fusion partners.
UniProt Q9SQI2: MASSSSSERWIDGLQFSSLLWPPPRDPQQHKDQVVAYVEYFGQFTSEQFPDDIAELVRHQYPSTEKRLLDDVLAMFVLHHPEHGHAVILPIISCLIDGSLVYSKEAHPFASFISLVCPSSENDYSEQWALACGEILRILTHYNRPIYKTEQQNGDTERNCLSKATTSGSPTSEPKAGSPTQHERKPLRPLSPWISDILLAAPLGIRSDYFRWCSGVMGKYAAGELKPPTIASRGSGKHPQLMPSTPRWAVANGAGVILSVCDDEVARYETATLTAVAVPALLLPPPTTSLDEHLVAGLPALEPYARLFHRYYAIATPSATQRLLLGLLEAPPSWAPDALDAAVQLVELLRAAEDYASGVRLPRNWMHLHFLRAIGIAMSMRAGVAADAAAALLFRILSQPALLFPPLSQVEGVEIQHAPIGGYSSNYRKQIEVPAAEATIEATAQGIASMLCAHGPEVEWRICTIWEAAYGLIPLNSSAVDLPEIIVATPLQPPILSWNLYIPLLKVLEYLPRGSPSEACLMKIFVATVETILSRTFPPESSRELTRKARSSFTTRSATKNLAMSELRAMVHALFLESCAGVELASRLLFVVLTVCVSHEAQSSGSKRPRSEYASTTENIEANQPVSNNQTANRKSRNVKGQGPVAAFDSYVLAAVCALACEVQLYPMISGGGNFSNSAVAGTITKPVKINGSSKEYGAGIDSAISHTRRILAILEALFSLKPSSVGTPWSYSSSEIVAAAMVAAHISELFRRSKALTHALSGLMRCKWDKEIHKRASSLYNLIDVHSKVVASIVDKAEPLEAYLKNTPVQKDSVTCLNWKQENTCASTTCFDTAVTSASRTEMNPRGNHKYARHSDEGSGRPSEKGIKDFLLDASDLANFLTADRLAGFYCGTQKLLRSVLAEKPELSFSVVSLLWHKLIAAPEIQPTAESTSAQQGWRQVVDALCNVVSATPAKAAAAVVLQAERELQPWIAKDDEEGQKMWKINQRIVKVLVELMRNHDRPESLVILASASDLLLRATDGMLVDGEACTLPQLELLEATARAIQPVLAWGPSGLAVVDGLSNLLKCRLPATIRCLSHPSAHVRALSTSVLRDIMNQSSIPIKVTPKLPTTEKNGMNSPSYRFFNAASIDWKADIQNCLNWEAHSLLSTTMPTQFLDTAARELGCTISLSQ
UniProt O24456: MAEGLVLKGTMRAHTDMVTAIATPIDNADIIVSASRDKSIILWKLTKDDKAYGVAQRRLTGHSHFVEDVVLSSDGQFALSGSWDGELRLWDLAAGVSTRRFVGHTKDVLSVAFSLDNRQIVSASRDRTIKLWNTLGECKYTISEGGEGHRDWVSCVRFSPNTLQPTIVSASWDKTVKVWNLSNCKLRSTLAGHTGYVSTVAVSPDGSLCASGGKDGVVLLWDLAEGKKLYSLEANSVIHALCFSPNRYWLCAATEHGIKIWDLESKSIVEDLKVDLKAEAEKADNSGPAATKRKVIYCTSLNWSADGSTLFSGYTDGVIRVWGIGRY
UniProt Q9M888: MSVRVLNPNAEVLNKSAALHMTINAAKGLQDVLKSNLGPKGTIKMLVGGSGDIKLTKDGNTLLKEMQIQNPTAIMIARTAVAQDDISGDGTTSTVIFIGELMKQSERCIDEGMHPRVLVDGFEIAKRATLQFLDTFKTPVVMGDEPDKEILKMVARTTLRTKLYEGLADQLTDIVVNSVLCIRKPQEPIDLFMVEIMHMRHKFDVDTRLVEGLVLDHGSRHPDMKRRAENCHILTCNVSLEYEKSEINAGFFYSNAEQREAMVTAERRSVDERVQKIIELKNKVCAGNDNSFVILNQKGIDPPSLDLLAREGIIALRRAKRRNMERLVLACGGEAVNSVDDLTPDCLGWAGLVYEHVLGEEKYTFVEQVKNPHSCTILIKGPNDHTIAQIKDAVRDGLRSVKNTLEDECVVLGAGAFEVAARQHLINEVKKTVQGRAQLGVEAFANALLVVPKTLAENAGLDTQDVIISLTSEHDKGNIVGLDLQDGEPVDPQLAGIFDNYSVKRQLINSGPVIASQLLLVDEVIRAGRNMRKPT
UniProt P22953: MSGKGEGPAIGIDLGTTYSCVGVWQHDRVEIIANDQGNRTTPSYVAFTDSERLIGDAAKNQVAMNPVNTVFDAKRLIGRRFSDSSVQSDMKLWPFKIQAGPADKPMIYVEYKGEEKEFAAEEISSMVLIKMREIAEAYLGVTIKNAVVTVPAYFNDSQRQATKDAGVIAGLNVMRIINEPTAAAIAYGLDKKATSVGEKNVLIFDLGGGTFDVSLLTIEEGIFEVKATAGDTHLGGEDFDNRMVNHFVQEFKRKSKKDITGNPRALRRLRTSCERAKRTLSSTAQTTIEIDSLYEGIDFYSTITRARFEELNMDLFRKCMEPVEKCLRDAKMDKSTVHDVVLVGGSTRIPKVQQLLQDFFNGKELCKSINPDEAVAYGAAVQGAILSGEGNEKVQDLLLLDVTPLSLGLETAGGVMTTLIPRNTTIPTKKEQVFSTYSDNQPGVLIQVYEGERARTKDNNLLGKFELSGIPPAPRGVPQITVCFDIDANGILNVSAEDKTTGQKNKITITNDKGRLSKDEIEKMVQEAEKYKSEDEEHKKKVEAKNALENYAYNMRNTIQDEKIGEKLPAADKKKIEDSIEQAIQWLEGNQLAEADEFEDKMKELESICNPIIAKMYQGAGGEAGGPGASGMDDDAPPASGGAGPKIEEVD
UniProt Q9CAI7: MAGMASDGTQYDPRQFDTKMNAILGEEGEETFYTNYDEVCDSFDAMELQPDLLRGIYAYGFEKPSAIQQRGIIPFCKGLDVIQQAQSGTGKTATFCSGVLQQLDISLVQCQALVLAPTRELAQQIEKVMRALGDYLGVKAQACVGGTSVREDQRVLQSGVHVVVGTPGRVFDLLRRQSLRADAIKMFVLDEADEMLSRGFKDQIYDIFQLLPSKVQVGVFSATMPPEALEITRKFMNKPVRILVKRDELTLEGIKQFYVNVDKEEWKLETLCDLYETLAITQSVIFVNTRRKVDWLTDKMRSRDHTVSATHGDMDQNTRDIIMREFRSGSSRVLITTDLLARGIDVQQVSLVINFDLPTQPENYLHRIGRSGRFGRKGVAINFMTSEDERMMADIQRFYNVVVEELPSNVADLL
UniProt Q9C4Z6: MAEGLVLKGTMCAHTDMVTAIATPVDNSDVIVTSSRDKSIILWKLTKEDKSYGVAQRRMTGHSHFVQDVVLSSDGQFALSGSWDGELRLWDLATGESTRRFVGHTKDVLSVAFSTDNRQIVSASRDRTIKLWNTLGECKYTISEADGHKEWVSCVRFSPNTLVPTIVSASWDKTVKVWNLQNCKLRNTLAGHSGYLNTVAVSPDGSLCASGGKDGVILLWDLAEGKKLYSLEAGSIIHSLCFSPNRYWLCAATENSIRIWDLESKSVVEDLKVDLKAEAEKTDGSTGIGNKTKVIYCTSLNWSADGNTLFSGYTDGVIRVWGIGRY

The labels stand for the following.
B1: ubiquitin-specific protease 12 (enzyme, UniProt Q9FPT1 1-1116)
chain: MTMMTPPPVDQPEDEEMLVPNSDLVDGPAQPMEVTQPETAASTVENQPAEDPPTLKFTWTIPNFSRQNTRKHYSDVFVVGGYKWRILIFPKGNNVDHLSMYLDVSDAASLPYGWSRYAQFSLAVVNQIHTRYTVRKETQHQFNARESDWGFTSFMPLSELYDPSRGYLVNDTVLVEAEVAVRKVLDYWSYDSKKETGFVGLKNQGATCYMNSLLQTLYHIPYFRKAVYHMPTTENDAPTASIPLALQSLFYKLQYNDTSVATKELTKSFGWDTYDSFMQHDVQELNRVLCEKLEDKMKGTVVEGTIQQLFEGHHMNYIECINVDFKSTRKESFYDLQLDVKGCKDVYASFDKYVEVERLEGDNKYHAEGHGLQDAKKGVLFIDFPPVLQLQLKRFEYDFMRDTMVKINDRYEFPLELDLDREDGKYLSPDADRSVRNLYTLHSVLVHSGGVHGGHYYAFIRPTLSDQWYKFDDERVTKEDLKRALEEQYGGEEELPQTNPGFNNNPPFKFTKYSNAYMLVYIRESDKDKIICNVDEKDIAEHLRVRLKKEQEEKEDKRRYKAQAHLYTIIKVARDEDLKEQIGKDIYFDLVDHDKVRSFRIQKQTPFQQFKEEVAKEFGVPVQLQRFWIWAKRQNHTYRPNRPLTPQEELQPVGQIREASNKANTAELKLFLEVEHLDLRPIPPPEKSKEDILLFFKLYDPEKAVLSYAGRLMVKSSSKPMDITGKLNEMVGFAPDEEIELFEEIKFEPCVMCEHLDKKTSFRLCQIEDGDIICFQKPLVNKEIECLYPAVPSFLEYVQNRQLVRFRALEKPKEDEFVLELSKQHTYDDVVEKVAEKLGLDDPSKLRLTSHNCYSQQPKPQPIKYRGVDHLSDMLVHYNQTSDILYYEVLDIPLPELQGLKTLKVAFHHATKEEVVIHNIRLPKQSTVGDVINELKTKVELSHPDAELRLLEVFYHKIYKIFPSTERIENINDQYWTLRAEEIPEEEKNIGPNDRLILVYHFAKETGQNQQVQNFGEPFFLVIHEGETLEEIKNRIQKKLHVSDEDFAKWKFAFMSMGRPEYLQDTDVVYNRFQRRDVYGAFEQYLGLEHADTTPKRAYAANQNRHAYEKPVKIYN
B2: Cpn60 chaperonin family protein At3g18190 (protein, UniProt Q9LV21 1-536)
chain: MAAVAAPMASKPRGSKAESFVDNKRREDIRFANINSARAVSDAVRTSLGPKGMDKMISTANGEVIITNDGATILNKMEVLQPAAKMLVELSKSQDSAAGDGTTTVVVIAGALLKECQSLLTNGIHPTVISDSLHKACGKAIDILTAMAVPVELTDRDSLVKSASTSLNSKVVSQYSTLLAPLAVDAVLSVIDPEKPEIVDLRDIKIVKKLGGTVDDTHTVKGLVFDKKVSRAAGGPTRVENAKIAVIQFQISPPKTDIEQSIVVSDYTQMDRILKEERNYILGMIKKIKATGCNVLLIQKSILRDAVTDLSLHYLAKAKIMVIKDVERDEIEFVTKTLNCLPIANIEHFRAEKLGHADLVEEASLGDGKILKITGIKDMGRTTSVLVRGSNQLVLDEAERSLHDALCVVRCLVSKRFLIAGGGAPEIELSRQLGAWAKVLHGMEGYCVKSFAEALEVIPYTLAENAGLNPIAIVTELRNKHAQGEINAGINVRKGQITNILEENVVQPLLVSTSAITLATECVRMILKIDDIVTVR
B3: cystatin 1 (protein, UniProt Q945Q1 1-101)
chain: MADQQAGTIVGGVRDIDANANDLQVESLARFAVDEHNKNENLTLEYKRLLGAKTQVVAGTMHHLTVEVADGETNKVYEAKVLEKAWENLKQLESFNHLHDV
B4: ubiquitin-specific protease 13 (enzyme, UniProt Q84WU2 1-1115)
chain: MTMMTPPPLDQQEDEEMLVPNPDLVEGPQPMEVAQTDPAATAVENPPPEDPPSLKFTWTIPMFTRLNTRKHYSDVFVVGGYKWRILIFPKGNNVDHLSMYLDVADAANLPYGWSRYSQFSLAVVNQVNNRYSIRKETQHQFNARESDWGFTSFMPLSELYEPTRGYLVNDTVLIEAEVAVRKVLDYWSYDSKKETGFVGLKNQGATCYMNSLLQTLYHIPYFRKAVYHMPTTENDAPTASIPLALQSLFYKLQYNDTSVATKELTKSFGWDTYDSFMQHDVQELNRVLCEKLEDKMKGTVVEGTIQKLFEGHHMNYIECINVDYKSTRKESFYDLQLDVKGCKDVYASFDKYVEVERLEGDNKYHAEGHDLQDAKKGVLFIDFPPVLQLQLKRFEYDFMRDTMVKINDRYEFPLQLDLDREDGRYLSPDADKSVRNLYTLHSVLVHSGGVHGGHYYAFIRPTLSDQWYKFDDERVTKEDVKRALEEQYGGEEELPQNNPGFNNPPFKFTKYSNAYMLVYIRESDKDKIICNVDEKDIAEHLRVRLKKEQEEKEDKRKYKAQAHLFTTIKVARDDDITEQIGKNIYFDLVDHEKVRSFRIQKQTPFQQFKEEVAKEFGVPVQLQRFWIWAKRQNHTYRPNRPLSPNEELQTVGQIREASNKANNAELKLFLEIERGPDDLPIPPPEKTSEDILLFFKLYDPENAVLRYVGRLMVKSSSKPMDIVGQLNKMAGFAPDEEIELFEEIKFEPCVMCEQIDKKTSFRLCQIEDGDIICYQKPLSIEESEFRYPDVPSFLEYVQNRELVRFRTLEKPKEDEFTMELSKLHTYDDVVERVAEKLGLDDPSKLRLTSHNCYSQQPKPQPIKYRGVDHLSDMLVHYNQTSDILYYEVLDIPLPELQGLKTLKVAFHSATKDEVIIHNIRLPKQSTVGDVINELKTKVELSHQDAELRLLEVFFHKIYKIFPSTERIENINDQYWTLRAEEIPEEEKNIGPNDRLIHVYHFTKEAGQNQQVQNFGEPFFLVIHEGETLEEIKTRIQKKLHVPDEDFAKWKFASFSMGRPDYLLDTDVVYNRFQRRDVYGAWEQYLGLEHIDNAPKRAYAANQNRHAYEKPVKIYN
B5: Cpn60 chaperonin family protein At1g24510 (protein, UniProt O04450 1-535)
chain: MALAFDEFGRPFIILREQDQKTRLRGIDAQKANIAAGKAVARILRSSLGPKGMDKMLQGPDGDITITNDGATILEQMDVDNQIAKLMVELSRSQDYEIGDGTTGVVVMAGALLEQAERQLDRGIHPIRIAEGYEMASRVAVEHLERIAQKFEFDVNNYEPLVQTCMTTLSSKIVNRCKRSLAEIAVKAVLAVADLERRDVNLDLIKVEGKVGGKLEDTELIYGILIDKDMSHPQMPKQIEDAHIAILTCPFEPPKPKTKHKVDIDTVEKFETLRKQEQQYFDEMVQKCKDVGATLVICQWGFDDEANHLLMHRNLPAVRWVGGVELELIAIATGGRIVPRFQELTPEKLGKAGVVREKSFGTTKERMLYIEHCANSKAVTVFIRGGNKMMIEETKRSIHDALCVARNLIRNKSIVYGGGAAEIACSLAVDAAADKYPGVEQYAIRAFAEALDSVPMALAENSGLQPIETLSAVKSQQIKENIPFYGIDCNDVGTNDMREQNVFETLIGKQQQILLATQVVKMILKIDDVISNSEY
B6: TCP-1/cpn60 chaperonin family protein At3g03960 (protein, UniProt Q94K05 1-549)
chain: MVGMSMQPYGIQSMLKEGYRHLSGLDEAVIKNIEACKELSTITRTSLGPNGMNKMVINHLDKLFVTNDAATIVNELEIQHPAAKLLVLAAKAQQEEIGDGANLTISFAGELLQNAEELIRMGLHPSEIISGYTKAVSKAVEILEQLVETGSETMDVRNKDEVISRMRAAVASKQFGQEEIICSLVTDACIQVCPKNPTNFNVDNVRVSKLLGGGLHNSCIVRGMVLKSDAVGSIKRMEKAKVAVFAGGVDTTATETKGTVLIHSAEQLENYAKTEEAKVEELIKAVAESGAKVIVSGGSIGEMALHFCERYKIMVLKISSKFELRRFCRTAGAVAHLKLSRPSPEDLGYVDSISVEEIGGVTVTIARNEEGGNSISTVVLRGSTDSILDDLERAVDDGVNTYKAMCRDSRIVPGAAATEIELAQRLKEYANAEIGLDKYAITKYAESFEFVPKTLADNAGLNAMEIIAALYTGHGSGNTKLGIDLEEGACKDVSETKVWDLFATKLFALKYASDAACTVLRVDQIIMAKPAGGPRRDAAQAAGAGAEED
B7: CYCLING DOF FACTOR 6 (endogenous) (protein, UniProt Q9LQX4 1-366)
chain: MSQVRDTPVKLFGWTITPVSHDPYSSSSHVLPDSSSSSSSSSLSLRPHMMNNQSVTDNTSLKLSSNLNNESKETSENSDDQHSEITTITSEEEKTTELKKPDKILPCPRCNSADTKFCYYNNYNVNQPRHFCRKCQRYWTAGGSMRIVPVGSGRRKNKGWVSSDQYLHITSEDTDNYNSSSTKILSFESSDSLVTERPKHQSNEVKINAEPVSQEPNNFQGLLPPQASPVSPPWPYQYPPNPSFYHMPVYWGCAIPVWSTLDTSTCLGKRTRDETSHETVKESKNAFERTSLLLESQSIKNETSMATNNHVWYPVPMTREKTQEFSFFSNGAETKSSNNRFVPETYLNLQANPAAMARSMNFRESI
B8: 14-3-3λ protein (protein, UniProt P48349 1-248)
chain: MAATLGRDQYVYMAKLAEQAERYEEMVQFMEQLVTGATPAEELTVEERNLLSVAYKNVIGSLRAAWRIVSSIEQKEESRKNDEHVSLVKDYRSKVESELSSVCSGILKLLDSHLIPSAGASESKVFYLKMKGDYHRYMAEFKSGDERKTAAEDTMLAYKAAQDIAAADMAPTHPIRLGLALNFSVFYYEILNSSDKACNMAKQAFEEAIAELDTLGEESYKDSTLIMQLLRDNLTLWTSDMQEQMDEA
B9: carbonic anhydrase At5g14740 (enzyme, UniProt P42737 72-331)
chain: RMGNESYEDAIEALKKLLIEKDDLKDVAAAKVKKITAELQAASSSDSKSFDPVERIKEGFVTFKKEKYETNPALYGELAKGQSPKYMVFACSDSRVCPSHVLDFHPGDAFVVRNIANMVPPFDKVKYAGVGAAIEYAVLHLKVENIVVIGHSACGGIKGLMSFPLDGNNSTDFIEDWVKICLPAKSKVLAESESSAFEDQCGRCEREAVNVSLANLLTYPFVREGVVKGTLALKGGYYDFVNGSFELWELQFGISPVHSI

Results are given in words; binding and its absence hold for the method and conditions named. In cells and extracts the contact can be indirect. These calls come from enrichment with a bait or labelling near it, and not all partners need be listed.

In one experiment the target is 3xFlag-, 6xHis-tagged GIGANTEA protein (GI:3F6H) (Arabidopsis thaliana) (UniProt Q9SQI2). The experiment is described as follows: affinity purification with mass spectrometry.
With B1, the binding result is “binds”.

On to B2, for which the binding result is “binds”.

For the molecule B3, the binding result is listed as “binds”.

B4: the binding result is on record as “binds”.

Turning to B5, the binding entry is recorded as “binds”.

Regarding B6, the binding result is “binds”.

Another experiment has the same target. The experiment is described as follows: affinity purification with mass spectrometry. The source holds these as a separate data set.
Consider RACK1A (from UniProt O24456 1-327), for which the binding entry was “binds”.

As to “Cpn60 chaperonin family protein At3g02530 (from UniProt Q9M888 1-535)”, the binding entry was “binds”.

For the molecule “Hsp70 family protein At5g02500 (from UniProt P22953 1-651)”, the binding result is “binds”.

For the molecule “translation factor At1g72730 (from UniProt Q9CAI7 1-414)”, the binding result is reported as “binds”.

For the molecule TPR4 (from UniProt Q8VZ31), the binding result was “binds”.

As to RACK1B (from UniProt Q9C4Z6 1-326), the binding result is listed as “binds”.

Another experiment shares this target. As to the kind of experiment: affinity purification with mass spectrometry. The source holds these as a separate data set.
As to B1, the binding result is recorded as “binds”.

B3: the binding result is reported as “binds”.

Regarding B7, the binding entry is listed as “binds”.

Consider B4, for which the binding entry is recorded as “binds”.

With B6, the binding entry is recorded as “binds”.

Regarding B8, the binding result was “binds”.

The target is the same in another experiment. The experiment is described as follows: affinity purification with mass spectrometry. This is another data set of the same source.
In the case of B9, the binding result was “binds”.
